Results reported in PubChem BioAssay AID540276 (National Center for Advancing Translational Sciences (NCATS), 2011).
Values joined by “and” are separate entries in the source; they are usually repeats but may differ in a detail not shown here. Identical values can stand only once. In all, about 300,000 compounds went through this assay and about 5,400 (1.8%) were called active. Inconclusive means that the source gave no clear call. Such entries were picked first, then a sample of the others. Calls come from the whole dose curve; tested in HEK293 cells. Potencies of inconclusive entries are doubtful fits and often do not repeat.

Test: qHTS for inhibitors of binding or entry into cells for Marburg Virus
Conditions: Marburg virus pseudotyped entry inhibition, cell reporter; series mostly up to 37.8 µM
Potency is the fitted concentration of half-maximal effect.

| Compound | Potency |
| --- | --- |
| CCNc1nc(NC(C)(C)C)nc(N2CCCC2)n1 | active: 3.16 µM |
| CC(C)[C@H](NC(=O)c1ccc(Cl)cc1Cl)C(=O)NNc1cccc(C(=O)O)c1 | inconclusive: 17.8 µM [activator, single point] |
| CCC(=O)N1CCN(c2ccc(Cl)cc2NC(=O)Cc2ccc(Cl)cc2)CC1 | inconclusive: 20.6 µM [inhibitor, partial curve, poor fit] |
| O=[N+]([O-])c1cccc(-c2nnc(-c3ccccc3)o2)c1 | inconclusive: 3.16 µM [activator, single point] |
| CC(C)(C)c1cc(NC(=O)c2cccnc2)no1 | inactive |
| COc1ccccc1NS(=O)(=O)c1cc(NC(=O)C2CCCC2)ccc1N1CCOCC1 | inconclusive: 5.62 µM [inhibitor, single point] |
| COc1ccc(O)c(/C=N/NC(=O)CCC(=O)Nc2cccc(C)c2)c1 | inconclusive: 12.6 µM [inhibitor, partial curve] |
| COc1ccc(C(=O)Nc2cc(C)on2)cc1 | inconclusive: 2.59 µM [activator, partial curve, poor fit] |
| O=C(N/N=C\c1cc(Cl)ccc1O)c1ccc(S(=O)(=O)N2CCCCC2)cc1 | inconclusive: 7.94 µM [inhibitor, partial curve, poor fit] |
| Cc1ccc(C(C)NC(=O)Cc2cccs2)c(C)c1 (stereo not given) | inactive |
| CCn1c(CN2CCOCC2)nc2cc(NC(=O)c3ccc([N+](=O)[O-])cc3)ccc21 | inconclusive: 1 µM [activator, full curve, poor fit] |
| CCOC(=O)C1=C(N)OC2=C(C(=O)CCC2)C12C(=O)N(C)c1ccccc12 (stereo not given) | inactive |
| CCOc1ccc(-c2nc(SCC(=O)NCCCOC)c(-c3ccccc3)[nH]2)cc1 | inconclusive: 5.62 µM [activator, single point] |
| Cc1cc(NC(=O)COC(=O)c2ccc(S(=O)(=O)N3CCCc4ccccc43)cc2)no1 | inconclusive: 6.31 µM [inhibitor, single point] |
| Cc1c(C(=O)N(Cc2ccc(Cl)cc2)CC2CCCO2)oc2ccc(F)cc12 (stereo not given) | inactive |
| Cc1cccc(Cc2nnc(NC(=O)c3cccc(S(=O)(=O)N4CCOCC4)c3)s2)c1 | inconclusive: 15.8 µM [inhibitor, single point] |
| CC(C)NCC(=O)Nc1c2c(nc3ccccc13)CCC2 | inconclusive: 28.2 µM [inhibitor, partial curve, poor fit] |
| COc1ccccc1NC(=O)CNC(=O)CC12CC3CC(CC(C3)C1)C2 | inactive |
| c1cc2c(cc1C1CCCCC1)c1c3n2CCN=C3CCC1 | inconclusive: 11.2 µM [inhibitor, single point] |
| CCn1ncc(/C=N/N=C2\CCC3C4CCc5cc(O)ccc5C4CCC23C)c1C (stereo not given) | inactive |
| COc1ccc(/C=C/C(=O)OCC(=O)NC2CCCC2)cc1OC | inactive |
| Cc1ccc(S(=O)(=O)NC(C)(C)CSc2nnc(Nc3ccccc3)s2)cc1 | inconclusive: 29.1 µM [inhibitor, single point] |
| N#CC1=C(N)C(C#N)(C#N)C(c2cccnc2)C2COCC=C12 (stereo not given) | inconclusive: 10 µM [activator, partial curve, poor fit] |
| COc1ccc(S(=O)(=O)N2CCCC(C(=O)Nc3cccnc3)C2)cc1Cl (stereo not given) | inconclusive: 35.5 µM [inhibitor, single point] |

| Compound | Potency |
| --- | --- |
| CCCc1ncc(C(O)(c2ccccc2)c2ccc(C)cc2)n1C (stereo not given) | inconclusive: 0.501 µM [inhibitor, full curve, poor fit] |
| CC(=O)c1ccc(S(=O)(=O)NC2CCCCCCC2)cc1 | inconclusive: 7.08 µM [inhibitor, full curve, poor fit] |
| CC1=C(C)CC(C(=O)NC(C)CCc2ccccc2)C(C(=O)O)C1 (stereo not given) | inconclusive: 35.5 µM [inhibitor, single point] |
| O=C(Nc1ccc(N2CCOCC2)nc1)c1ccc(F)cc1 | inactive |
| COc1ccc(/C=N/NC(=O)C(C)n2cnc3ccccc3c2=O)cc1 (stereo not given) | inconclusive: 0.316 µM [inhibitor, full curve, poor fit] |
| CC1CCC2(CC1)N=C(c1ccccc1)C(=O)N2CC(=O)Nc1ccc(F)c(Cl)c1 (stereo not given) | inconclusive: 31.6 µM [inhibitor, partial curve, poor fit] |
| Cc1nc2ncnn2c(C)c1CCC(=O)N1CCN(c2cccc(Cl)c2)CC1 | inconclusive: 2.51 µM [activator, full curve, poor fit] |
| Cc1cccnc1Nc1nc(-c2ccc(O)cc2)cs1 | inconclusive: 32.6 µM [inhibitor, single point] |
| CC(=O)CC1OC(=O)C(Br)=C1NCc1ccccc1 (stereo not given) | active: 18.3 µM |
| C=CCc1cccc2cc(C(=O)OCC)c(=O)oc12 | inconclusive: 1.26 µM [activator, partial curve, poor fit] |
| CC(C)NC(=O)CSc1nc2ccccc2n1-c1ccccc1 | inconclusive: 0.146 µM [inhibitor, full curve, poor fit] |
| COC[C@@H](O)[C@@H](OC)[C@H](OC)[C@H](Cc1c(OC)cc(OC)cc1OC)OC | inactive |
| COc1cc(NC(=O)c2cccc(F)c2)ccc1NC(=O)c1cc2ccccc2o1 | inconclusive: 35.5 µM [inhibitor, single point] |
| COc1ccc(NC(=O)CN2C(=O)c3ccccc3Sc3ccc(C(=O)N4CCOCC4)cc32)c(OC)c1 | inactive |
| O=C(COC(=O)c1ccc(F)cc1F)NCc1ccc2c(c1)OCO2 | inactive |
| OCC#Cc1ncc(C(F)(F)F)cc1Cl | inactive |
| O=C(CSCc1nc2ccccc2[nH]1)Nc1ccc2ccccc2c1 | inactive |
| C[N+](C)(C)CC#CCN1CCCC1=O | inconclusive: 3.26 µM [activator, partial curve, poor fit] and inconclusive: 31.6 µM [inhibitor, single point] |
| Cc1cc(CNC(=O)Nc2ccc3c(c2)OCO3)nn1C | inconclusive: 20.6 µM [activator, partial curve, poor fit] |
| O=C(C1CC1)N1CCc2cc(Br)cc(S(=O)(=O)N3CCCCCC3)c21 | inactive |
| CC1CCc2nc(NC(=O)C3CCCO3)sc2C1 (stereo not given) | inconclusive: 1.16 µM [activator, single point] |
| Cc1ccc(S(=O)(=O)Oc2cccc(N3C(=O)C4CC=CCC4C3=O)c2)cc1 (stereo not given) | inactive |
| O=C(NCc1ccncc1)C(=O)NCC1OCCCN1S(=O)(=O)c1ccc(F)cc1 (stereo not given) | inconclusive: 0.891 µM [inhibitor, full curve, poor fit] |
| Oc1ccccc1C1N=C(c2ccccc2)NC(c2ccccc2)=N1 | inactive |

| Compound | Potency |
| --- | --- |
| Cc1ccc(C(=O)N2N=C(c3ccccc3)CC2(O)C(F)(F)F)o1 (stereo not given) | inconclusive: 35.5 µM [activator, single point] |
| COC(=O)CC1C(=O)NCCN1C(=S)Nc1ccc(F)cc1 (stereo not given) | inactive |
| CCOC(=O)c1ccc(Nc2nc(N)c3cc(OC)c(OC)cc3n2)cc1 | inconclusive: 28.2 µM [inhibitor, single point] |
| Clc1ccc2c(c1)c1ccccc1n2CN1CCOCC1 | inactive |
| O=C(Cn1cccc1)N1CCN(C(c2ccccc2)c2ccccc2)CC1 | inactive |
| Cc1cc(=O)[nH]c(SCc2nc3ccccc3n2Cc2ccccc2)n1 | inconclusive: 18.3 µM [inhibitor, partial curve, poor fit] |
| CCOC(=O)/C(C#N)=C/c1cc(C)n(-c2ccccc2)c1C | inconclusive: 14.1 µM [inhibitor, single point] |
| O=C(c1ccc(S(=O)(=O)N2CCOCC2)cc1)N1CCN(c2ccc(F)cc2)CC1 | inactive |
| Cc1ccc(C)n1CCN1CCN(C(=O)c2ccc(Cl)cc2)CC1 | inconclusive: 22.4 µM [inhibitor, partial curve, poor fit] |
| O=C(N/N=C/c1ccc(OC(=O)c2ccco2)cc1)c1ccncc1 | inactive |
| O=C(CCSCc1cccc(Cl)c1)NCCC1=CCCCC1 | inconclusive: 35.5 µM [activator, single point] |
| CCCOCc1cc(CN2CCN(c3cccc(Cl)c3)CC2)c(O)c2ncccc12 | inconclusive: 11.2 µM [inhibitor, partial curve, poor fit] |
| CCOc1ccc(OCC)c(NC(=O)c2nnn(CC(=O)Nc3cc(C)cc(C)c3)c2N)c1 | inconclusive: 20 µM [inhibitor, single point] |
| c1ccc2c(N3CCNCC3)nsc2c1 | inconclusive: 7.94 µM [inhibitor, partial curve, poor fit] |
| CCOc1cc(/C=N/NC(=O)C(N)=O)cc(Br)c1O | inconclusive: 14.1 µM [activator, single point] |
| Cc1nc2cc(-c3ccccc3)nn2c(C)c1CCC(=O)NCCc1ccccc1 | inactive |
| Cc1ccc(NC(=O)OC[C@@H]2CSCCS(=O)(=O)N2)cc1 | inconclusive: 35.3 µM [activator, partial curve] |
| Cn1c(O)c(C(C#N)=C2N=c3ccccc3=N2)c2ccccc21 | inconclusive: 1.26 µM [inhibitor, single point] |
| Cc1nnsc1C(=O)NNc1c(Cl)cccc1Cl | inconclusive: 35.5 µM [inhibitor, single point] |
| Cn1c2c(c(=O)n(C)c1=O)C(c1cc(Br)ccc1F)CC(=O)N2 (stereo not given) | inactive |
| COc1cc(/C=C2/C(=O)NN(c3ccc(F)cc3)C2=O)cc([N+](=O)[O-])c1O | active: 3.55 µM |
| Cc1cccc(N2CCN(C(=O)N3CCOCC3)CC2)c1C | inconclusive: 1.78 µM [inhibitor, partial curve, poor fit] |
